The values that follow come from the supplement of paper PMC10849652.

Amino acid sequences for entries named in this document (tags omitted). A change or cut given only in a name is not applied to a line headed by its entry.
UniProt Q9UJZ1: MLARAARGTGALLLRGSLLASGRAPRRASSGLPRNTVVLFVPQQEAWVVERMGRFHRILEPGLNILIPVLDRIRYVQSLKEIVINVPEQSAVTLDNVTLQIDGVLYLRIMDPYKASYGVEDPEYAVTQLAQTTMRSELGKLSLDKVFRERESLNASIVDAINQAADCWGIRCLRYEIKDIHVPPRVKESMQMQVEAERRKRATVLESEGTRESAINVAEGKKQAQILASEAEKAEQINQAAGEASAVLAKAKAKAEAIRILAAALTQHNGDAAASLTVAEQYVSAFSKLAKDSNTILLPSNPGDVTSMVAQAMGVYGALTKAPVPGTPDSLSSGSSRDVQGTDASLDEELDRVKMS
UniProt Q9ULQ0: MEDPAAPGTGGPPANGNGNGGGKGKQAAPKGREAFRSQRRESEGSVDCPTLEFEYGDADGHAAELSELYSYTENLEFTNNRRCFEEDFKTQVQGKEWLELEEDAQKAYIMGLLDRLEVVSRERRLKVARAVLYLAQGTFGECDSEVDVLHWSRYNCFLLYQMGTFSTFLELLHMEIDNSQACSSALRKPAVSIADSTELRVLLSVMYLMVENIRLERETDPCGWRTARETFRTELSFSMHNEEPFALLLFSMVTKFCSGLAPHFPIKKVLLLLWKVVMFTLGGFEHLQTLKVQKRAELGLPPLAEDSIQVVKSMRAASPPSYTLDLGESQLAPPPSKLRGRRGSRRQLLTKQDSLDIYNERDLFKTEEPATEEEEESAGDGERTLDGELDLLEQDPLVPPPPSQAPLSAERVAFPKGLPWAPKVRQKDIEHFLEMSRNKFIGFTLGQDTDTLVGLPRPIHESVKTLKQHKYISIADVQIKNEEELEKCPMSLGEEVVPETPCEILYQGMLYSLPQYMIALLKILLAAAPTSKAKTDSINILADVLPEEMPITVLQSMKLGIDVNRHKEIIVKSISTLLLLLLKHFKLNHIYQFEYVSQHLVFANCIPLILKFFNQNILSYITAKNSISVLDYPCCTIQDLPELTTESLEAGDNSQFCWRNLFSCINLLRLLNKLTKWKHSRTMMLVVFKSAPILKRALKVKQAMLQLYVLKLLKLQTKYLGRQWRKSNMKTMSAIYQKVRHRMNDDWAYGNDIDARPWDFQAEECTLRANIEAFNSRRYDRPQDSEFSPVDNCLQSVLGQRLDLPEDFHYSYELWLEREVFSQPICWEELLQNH
UniProt A2RTX5: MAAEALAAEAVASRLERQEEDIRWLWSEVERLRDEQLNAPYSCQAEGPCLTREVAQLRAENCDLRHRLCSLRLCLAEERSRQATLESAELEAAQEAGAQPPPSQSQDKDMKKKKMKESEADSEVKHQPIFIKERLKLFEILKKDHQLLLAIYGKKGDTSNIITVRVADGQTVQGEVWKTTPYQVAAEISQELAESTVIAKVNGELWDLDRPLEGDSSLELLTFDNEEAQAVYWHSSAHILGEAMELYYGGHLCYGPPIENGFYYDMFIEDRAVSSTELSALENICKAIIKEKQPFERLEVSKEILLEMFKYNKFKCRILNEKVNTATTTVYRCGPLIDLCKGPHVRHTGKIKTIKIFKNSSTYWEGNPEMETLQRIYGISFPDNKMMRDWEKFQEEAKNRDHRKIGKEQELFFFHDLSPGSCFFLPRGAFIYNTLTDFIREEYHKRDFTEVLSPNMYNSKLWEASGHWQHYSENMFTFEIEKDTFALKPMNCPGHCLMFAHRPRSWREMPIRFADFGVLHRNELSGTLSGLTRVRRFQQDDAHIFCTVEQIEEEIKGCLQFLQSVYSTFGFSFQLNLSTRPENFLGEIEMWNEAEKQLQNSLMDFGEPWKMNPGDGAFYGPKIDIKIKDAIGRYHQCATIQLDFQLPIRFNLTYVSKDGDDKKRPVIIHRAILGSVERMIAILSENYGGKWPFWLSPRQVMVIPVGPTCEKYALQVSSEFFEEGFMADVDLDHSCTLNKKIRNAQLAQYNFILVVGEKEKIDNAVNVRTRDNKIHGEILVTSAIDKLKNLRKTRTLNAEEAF
UniProt Q86VP1, whole entry, looked up: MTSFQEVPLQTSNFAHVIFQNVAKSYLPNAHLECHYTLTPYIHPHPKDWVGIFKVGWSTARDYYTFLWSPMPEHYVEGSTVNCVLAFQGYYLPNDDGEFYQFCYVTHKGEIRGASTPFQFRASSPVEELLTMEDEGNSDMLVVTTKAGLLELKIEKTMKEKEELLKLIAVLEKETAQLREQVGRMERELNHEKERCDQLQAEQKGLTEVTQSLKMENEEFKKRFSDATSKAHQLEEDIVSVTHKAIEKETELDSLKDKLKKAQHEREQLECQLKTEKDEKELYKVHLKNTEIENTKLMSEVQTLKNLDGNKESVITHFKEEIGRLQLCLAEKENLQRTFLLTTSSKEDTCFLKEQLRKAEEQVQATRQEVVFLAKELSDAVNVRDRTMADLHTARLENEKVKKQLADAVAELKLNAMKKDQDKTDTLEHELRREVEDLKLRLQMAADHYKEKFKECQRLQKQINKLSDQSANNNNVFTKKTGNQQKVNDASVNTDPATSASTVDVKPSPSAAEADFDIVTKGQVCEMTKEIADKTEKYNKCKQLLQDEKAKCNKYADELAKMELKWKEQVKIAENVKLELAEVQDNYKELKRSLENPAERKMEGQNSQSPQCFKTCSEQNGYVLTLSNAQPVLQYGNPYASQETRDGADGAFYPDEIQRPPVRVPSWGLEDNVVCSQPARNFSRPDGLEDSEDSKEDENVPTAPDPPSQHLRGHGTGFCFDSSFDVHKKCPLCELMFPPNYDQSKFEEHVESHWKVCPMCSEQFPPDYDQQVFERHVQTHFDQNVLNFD
UniProt P37802: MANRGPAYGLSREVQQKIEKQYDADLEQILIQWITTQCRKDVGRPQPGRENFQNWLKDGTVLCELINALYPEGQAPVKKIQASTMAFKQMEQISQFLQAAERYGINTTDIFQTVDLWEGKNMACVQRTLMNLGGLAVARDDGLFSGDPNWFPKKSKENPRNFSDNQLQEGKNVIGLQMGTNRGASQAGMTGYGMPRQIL
UniProt Q92844: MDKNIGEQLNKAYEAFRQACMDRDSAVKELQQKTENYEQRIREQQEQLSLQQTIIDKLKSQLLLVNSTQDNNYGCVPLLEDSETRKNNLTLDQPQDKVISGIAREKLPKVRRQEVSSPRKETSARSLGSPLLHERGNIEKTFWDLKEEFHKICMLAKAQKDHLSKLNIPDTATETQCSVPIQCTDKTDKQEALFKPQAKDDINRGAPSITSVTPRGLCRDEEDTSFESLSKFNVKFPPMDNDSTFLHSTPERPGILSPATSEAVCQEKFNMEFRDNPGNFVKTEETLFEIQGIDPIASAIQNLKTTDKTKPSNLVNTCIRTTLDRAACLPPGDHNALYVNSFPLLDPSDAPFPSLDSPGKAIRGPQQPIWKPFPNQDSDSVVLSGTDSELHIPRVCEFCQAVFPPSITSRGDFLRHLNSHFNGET
UniProt P53597: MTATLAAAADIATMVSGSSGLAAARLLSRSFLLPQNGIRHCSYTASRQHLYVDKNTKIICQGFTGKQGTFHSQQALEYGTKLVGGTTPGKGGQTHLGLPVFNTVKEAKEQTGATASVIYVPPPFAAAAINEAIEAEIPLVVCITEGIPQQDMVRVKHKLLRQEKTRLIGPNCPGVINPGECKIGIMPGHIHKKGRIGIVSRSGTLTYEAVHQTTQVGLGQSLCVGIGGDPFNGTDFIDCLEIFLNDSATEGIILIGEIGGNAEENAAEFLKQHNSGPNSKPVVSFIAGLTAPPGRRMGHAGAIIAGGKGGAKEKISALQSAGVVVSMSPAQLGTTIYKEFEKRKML
UniProt Q96A49: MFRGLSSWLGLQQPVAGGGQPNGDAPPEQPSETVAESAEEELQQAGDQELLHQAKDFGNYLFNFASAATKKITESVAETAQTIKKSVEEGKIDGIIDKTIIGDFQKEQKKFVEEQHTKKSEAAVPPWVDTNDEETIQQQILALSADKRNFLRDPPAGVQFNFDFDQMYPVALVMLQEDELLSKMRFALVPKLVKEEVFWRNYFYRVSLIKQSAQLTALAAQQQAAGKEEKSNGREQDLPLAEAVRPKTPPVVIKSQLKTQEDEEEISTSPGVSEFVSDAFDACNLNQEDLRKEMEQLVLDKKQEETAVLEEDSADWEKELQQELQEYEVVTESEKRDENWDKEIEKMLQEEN
UniProt P17542, whole entry, looked up: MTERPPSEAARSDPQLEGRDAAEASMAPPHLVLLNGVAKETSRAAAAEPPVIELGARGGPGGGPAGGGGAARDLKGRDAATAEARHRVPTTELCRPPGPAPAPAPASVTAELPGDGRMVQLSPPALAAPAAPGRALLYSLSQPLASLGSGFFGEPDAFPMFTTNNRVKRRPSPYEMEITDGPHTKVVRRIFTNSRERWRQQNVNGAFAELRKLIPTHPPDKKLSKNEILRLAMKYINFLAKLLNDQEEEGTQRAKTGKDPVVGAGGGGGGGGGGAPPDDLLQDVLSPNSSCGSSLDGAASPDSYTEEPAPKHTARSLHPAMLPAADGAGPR
UniProt Q4KMP7: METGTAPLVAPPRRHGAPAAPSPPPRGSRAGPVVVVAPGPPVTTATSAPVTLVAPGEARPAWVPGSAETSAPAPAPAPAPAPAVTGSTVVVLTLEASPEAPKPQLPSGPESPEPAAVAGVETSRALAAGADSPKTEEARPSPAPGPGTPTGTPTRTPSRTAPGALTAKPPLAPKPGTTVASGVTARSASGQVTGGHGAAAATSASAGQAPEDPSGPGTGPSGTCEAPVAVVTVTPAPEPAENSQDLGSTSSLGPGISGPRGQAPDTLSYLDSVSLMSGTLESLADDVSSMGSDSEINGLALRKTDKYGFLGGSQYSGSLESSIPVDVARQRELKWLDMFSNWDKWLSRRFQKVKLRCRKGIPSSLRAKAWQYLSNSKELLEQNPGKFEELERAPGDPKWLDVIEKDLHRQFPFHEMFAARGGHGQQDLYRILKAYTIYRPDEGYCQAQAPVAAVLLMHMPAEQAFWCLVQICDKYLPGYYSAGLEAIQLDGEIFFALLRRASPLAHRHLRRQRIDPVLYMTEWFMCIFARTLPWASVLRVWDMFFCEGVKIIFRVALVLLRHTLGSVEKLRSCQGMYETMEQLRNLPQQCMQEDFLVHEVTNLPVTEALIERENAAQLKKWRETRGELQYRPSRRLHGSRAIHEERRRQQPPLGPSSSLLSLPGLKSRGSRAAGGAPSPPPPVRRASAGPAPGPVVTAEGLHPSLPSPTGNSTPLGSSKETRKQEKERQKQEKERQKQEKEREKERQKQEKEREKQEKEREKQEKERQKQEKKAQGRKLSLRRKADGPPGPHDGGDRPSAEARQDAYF
UniProt Q15633: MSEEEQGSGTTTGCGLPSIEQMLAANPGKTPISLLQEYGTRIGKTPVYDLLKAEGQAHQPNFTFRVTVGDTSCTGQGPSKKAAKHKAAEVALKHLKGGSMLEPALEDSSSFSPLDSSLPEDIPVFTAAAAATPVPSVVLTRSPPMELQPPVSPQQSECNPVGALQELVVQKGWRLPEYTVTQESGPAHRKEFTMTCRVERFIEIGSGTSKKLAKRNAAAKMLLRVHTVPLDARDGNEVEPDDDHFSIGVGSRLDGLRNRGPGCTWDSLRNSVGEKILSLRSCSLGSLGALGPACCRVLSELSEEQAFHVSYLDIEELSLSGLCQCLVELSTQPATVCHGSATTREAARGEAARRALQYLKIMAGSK
UniProt Q17R31: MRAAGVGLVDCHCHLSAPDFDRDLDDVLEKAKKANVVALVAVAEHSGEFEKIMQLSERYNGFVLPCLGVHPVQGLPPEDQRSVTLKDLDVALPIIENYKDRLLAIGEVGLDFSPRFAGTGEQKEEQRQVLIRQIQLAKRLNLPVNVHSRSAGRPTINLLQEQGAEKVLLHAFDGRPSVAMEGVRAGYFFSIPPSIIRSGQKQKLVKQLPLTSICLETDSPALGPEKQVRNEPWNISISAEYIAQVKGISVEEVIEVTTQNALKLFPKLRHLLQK
UniProt Q8NHG7: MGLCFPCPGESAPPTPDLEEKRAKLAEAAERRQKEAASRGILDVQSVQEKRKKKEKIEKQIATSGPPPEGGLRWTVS
UniProt O60506: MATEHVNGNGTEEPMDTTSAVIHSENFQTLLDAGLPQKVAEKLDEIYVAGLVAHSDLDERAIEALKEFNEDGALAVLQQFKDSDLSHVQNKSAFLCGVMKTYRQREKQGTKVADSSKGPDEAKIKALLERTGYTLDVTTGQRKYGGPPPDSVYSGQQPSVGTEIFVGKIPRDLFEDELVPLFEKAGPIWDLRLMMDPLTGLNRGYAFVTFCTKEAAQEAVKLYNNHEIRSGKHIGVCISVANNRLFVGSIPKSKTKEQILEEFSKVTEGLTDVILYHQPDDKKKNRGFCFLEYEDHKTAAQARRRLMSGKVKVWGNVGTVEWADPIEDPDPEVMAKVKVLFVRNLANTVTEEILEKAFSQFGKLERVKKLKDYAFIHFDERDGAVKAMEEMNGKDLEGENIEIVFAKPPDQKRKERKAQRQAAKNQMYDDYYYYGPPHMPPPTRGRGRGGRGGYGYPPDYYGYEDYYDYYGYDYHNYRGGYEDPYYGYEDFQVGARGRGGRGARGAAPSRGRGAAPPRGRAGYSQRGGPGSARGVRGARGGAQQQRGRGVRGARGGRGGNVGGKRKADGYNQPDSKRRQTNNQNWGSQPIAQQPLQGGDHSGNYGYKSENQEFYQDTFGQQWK

This is one part of the list.

Compound in this test: C1=CC(=C(C=C1Cl)C2=NC3=NC=CN=C3C(=N2)NC4=CC=NC=C4)F
The test can be described thus: log2 fold change, soluble protein after heating vs DMSO (PISA); higher = thermal stabilisation; K562 cells, 10 uM, 30 min; active = over 0.2 and 3.5 SD of the protein, either way, in both replicates (recomputed). In short, it runs like this: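 Soluble protein was defined as the supernatant after 21,000xg for 90 min. It came from K562 cells at 2×10^6 cells/mL given 10 μM compound for 30 min, heated in aliquots for 3 min across 48°C-58°C, pooled, and extracted in PBS with 0.5% NP-40 at 4°C, and was quantified by TMTpro 16plex LC-MS/MS with equalised channel sums. Thermal stability against control samples, from duplicates, is reported as log2 fold change.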
STOML2 (UniProt Q9UJZ1): the log2 fold change is inactive: 0.008.
With STRBP (UniProt Q96SI9) the figure was inactive: -0.198; with STRIP2 (UniProt Q9ULQ0), inactive: 0.009; with SUOX (UniProt P51687), inactive: 0.046.
On to TACO1 (UniProt Q9BSH4), for which the log2 fold change is inactive: 0.116.
With SUN2 (UniProt Q9UH99) the figure was inactive: -0.031.
With TARSL2 (UniProt A2RTX5), the log2 fold change is inactive: -0.051.
With TAX1BP1 (UniProt Q86VP1) the figure was inactive: 0.007; with TAF4 (UniProt O00268), inactive: 0.031.
The result for STX12 (UniProt Q86Y82) reads inactive: 0.005; that for STK3 isoform 2 (UniProt Q13188), inactive: 0.016; that for TAGLN2 isoform 2 (UniProt P37802), inactive: 0.078.
The result for TANK (UniProt Q92844) reads inactive: 0.101.
For SUPT4H1 (UniProt P63272), the log2 fold change is inactive: 0.093.
In the case of SYPL1 (UniProt Q16563), the log2 fold change is inactive: -0.013.
STX4 (UniProt Q12846): the log2 fold change is inactive: 0.066.
With TBC1D13 (UniProt Q9NVG8) the figure was inactive: 0.027; with SUCLG1 (UniProt P53597), inactive: 0.052.
The result for TAF8 isoform 2 (UniProt Q7Z7C8) reads inactive: 0.106; that for STXBP2 isoform 3 (UniProt Q15833), inactive: -0.109.
With TAF15 (UniProt Q92804) the figure was inactive: -0.197; with SUB1 (UniProt P53999), inactive: -0.011.
For TARS2 (UniProt Q9BW92), the log2 fold change was inactive: 0.021.
On to SYNE1 (UniProt Q8NF91), for which the log2 fold change is inactive: 0.07.
The result for STX17 (UniProt P56962) reads inactive: 0.124.
Take SUPT6H (UniProt Q7KZ85): the log2 fold change is inactive: 0.127.
Regarding SYAP1 (UniProt Q96A49), the log2 fold change is inactive: 0.095.
The result for TAL1 (UniProt P17542) reads inactive: -0.024.
As for SUPV3L1 (UniProt Q8IYB8), the log2 fold change is inactive: 0.019.
The result for TBC1D10B (UniProt Q4KMP7) reads inactive: -0.018.
For TARBP2 (UniProt Q15633), the log2 fold change was inactive: -0.194.
The result for TATDN3 isoform 3 (UniProt Q17R31) reads inactive: -0.034.
With SVIP (UniProt Q8NHG7) the figure was inactive: 0.037; with STRIP1 (UniProt Q5VSL9), inactive: 0.09.
With SYNJ2 (UniProt O15056) the figure was inactive: -0.066; with STK38 (UniProt Q15208), inactive: 0.029.
With TACC1 isoform 2 (UniProt O75410), the log2 fold change was inactive: 0.043.
The result for SYNCRIP (UniProt O60506) reads inactive: -0.197.
Regarding STUB1 (UniProt Q9UNE7), the log2 fold change is inactive: -0.242.
